Experimental data from patent publication US5244897A, “Glycyl-p-amino-pyridine for the treatment of senile dementia states” (priority 1989, dated 1993).
At least one compound was matched to its structure with a doubt left.

Experiments:
[1] = tested on: spontaneous EEG (motor cortex, hippocampus, nucleus amygdalae); experiment: spontaneous EEG; type: in vivo, rabbits
Source text: Electrodes were chronically implanted in the motor cortex, the hippocampus and the nucleus amygdalae of rabbits (n=4).
The effects of compounds on spontaneous EEG were studied in the animals.

[2] = tested on: acetylcholine release from the rat's cerebral cortex; experiment: acetylcholine release in vivo, acute treatment; conditions: 5.6 mg/kg i.p., anesthetized rats, n=5
Protocol: Effect on acetylcholine release from the rat's cerebral cortex "in vivo"
In this study the Acetylcholine release from the cerebral cortex was investigated in anesthetized rats (n=5) at different times before and after i.p. administration of MR-3066 at a dose of 5.6 mg/kg.

[3] = tested on: transcallosal evoked potential from the opposite side cerebral cortex; experiment: transcallosal evoked potential; type: in vivo, urethane anesthetized rats
Protocol: Electric stimulus was given to the callosum of urethane anesthetized rats, and transcallosal evoked potential from the opposite side cerebral cortex was measured.
The effects of the compounds on the transcallosal evoked potential were studied in rats.

[4] = tested on: electroconvulsive shock (ECS) induced amnesia; experiment: electroconvulsive shock (ECS) induced amnesia (passive avoidance); type: in vivo, male mice; conditions: i.p.
Protocol: Male mice (body weight 23-26 grams) were used.
Test apparatus and passive avoidance training (acquisition trial) were as described in the previous section.
Immediately after acquisition trial, amnesia was induced by electroconsulsive shock (ECS).
Test compounds were administered intraperitoneally soon afterwards the exposure to ECS.
The test trial was performed 24 h after the acquisition trial: the animals were put in the illuminated compartment an the latency time to enter the unlighted compartment was recorded
Anti-amnesic activity was calculated according to the following formula.
% of control = (the mean latency time of test compound treated mice/the
mean latency time of vehicle treated mice) × 100.

[5] = tested on: retention of passive avoidance response; experiment: learning behavior in normal mice (passive avoidance response); type: in vivo, male mice; conditions: i.p.
Protocol: Male mice (body weight ca 20 grams) were used. The test apparatus was a box with a dark compartment and an illuminated one.
The animal was placed in the illuminated compartment, foot-shock was given immediately after the mouse moved in the dark compartement (acquisition trial).
MR-3066 was intraperitoneally administered immediately after the acquisition trial.
The test trial was carried out 24 h following the acquisition trial and the latency time to enter the dark compartment was recorded.
Anti-amnesic activity was calculated according to the following formula:
of control = (the mean latency time of test compound treated mice/the mea
latency time of vehicle treated mice) 100.

[6] = properties stated in the general summary; type: in vivo; conditions: general statement
[7] = tested on: acetylcholine release from the rat's cerebral cortex; experiment: acetylcholine release in vivo, chronic treatment; conditions: 6 mg/kg oral 30 days, then 5.6 mg/kg i.p., three male rats
[8] = MR-3066 2 mg/kg i.v. vs physostigmine 0.1 mg/kg i.v.

With `NCC(=O)Nc1ccncc1` [MR-3066, glycyl-p-amino-pyridine monoacetate] the “duration of the EEG effects” value ([1]; 2 mg/kg i.v., rabbits) was “two to three”, the “onset of the EEG effects post administration” value ([1]; 2 mg/kg i.v., rabbits) was “five to 15” and the “fast wave activity in the motor cortex” value ([1]; 2 mg/kg i.v., rabbits n=4) was “decreased fast wave activity in the motor cortex”. The “theta activity in the hippocampus” value ([1]; 2 mg/kg i.v., rabbits n=4) was “increased theta activity in the hippocampus”, the “EEG effects versus physostigmine” value [1, 8] was “effects similar to physostigmine” and the “duration of action versus physostigmine” value [1, 8] was “duration of action of the former compound is longer than that of the latter one”. For the same compound, the “Ach release from the cerebral cortex” value [2] was “marked increase in Ach release”, the “amplitude of negative wave of transcallosal evoked potential” value ([3]; 2 mg/kg i.v., rats) was “increased the amplitude of negative wave” and the effectiveness versus physostigmine [3, 8] was “still more effective than physostigmine”. The “anti-amnesic effect versus THA” value [4] was “anti-amnesic effect more potently than THA did”, the learning behavior [5] was “facilitated learning behavior in normal mice” and the anticonvulsivant properties [6] was “endowed with anticonvulsivant properties”. The “influence on learning and on amnesia episodes” value [6] was “positive influence on learning and on amnesia episodes”, the “tachyphylaxis after repeated oral administration” value [7] was “no tachyphylaxis” and the “Ach release after chronic treatment” value ([7]; versus animals receiving drug first time) was “increase in Ach. release similar to that observed in animals receiving the drug under study for the first time”.
